Results from PubChem BioAssay AID1671190 (National Center for Advancing Translational Sciences (NCATS), 2021).
“And” between values parts separate entries of the source, which are not always exact repeats. Identical values can stand only once. Hit rate of the full screen: of about 580,000 compounds, about 6,100 (1.1%) were called active. This list was built around the results that the source calls inconclusive (neither active nor inactive); the mix of calls is not that of the screen. Calls come from the whole dose curve; as a rule, active = well fitted inhibition curve with a large enough effect; inconclusive = small, poorly fitted or top-dose-only effect, or another doubt; inactive = no such curve, though single readings can be large or run the other way. A potency beside an inconclusive call is a rough fit, not a confirmed value.

Protein sequences, listed by entry. Tags and fused reporters are not part of them. Lines headed by an entry give the natural chain unless they say otherwise; changes in a name come on top.
UniProt P18054: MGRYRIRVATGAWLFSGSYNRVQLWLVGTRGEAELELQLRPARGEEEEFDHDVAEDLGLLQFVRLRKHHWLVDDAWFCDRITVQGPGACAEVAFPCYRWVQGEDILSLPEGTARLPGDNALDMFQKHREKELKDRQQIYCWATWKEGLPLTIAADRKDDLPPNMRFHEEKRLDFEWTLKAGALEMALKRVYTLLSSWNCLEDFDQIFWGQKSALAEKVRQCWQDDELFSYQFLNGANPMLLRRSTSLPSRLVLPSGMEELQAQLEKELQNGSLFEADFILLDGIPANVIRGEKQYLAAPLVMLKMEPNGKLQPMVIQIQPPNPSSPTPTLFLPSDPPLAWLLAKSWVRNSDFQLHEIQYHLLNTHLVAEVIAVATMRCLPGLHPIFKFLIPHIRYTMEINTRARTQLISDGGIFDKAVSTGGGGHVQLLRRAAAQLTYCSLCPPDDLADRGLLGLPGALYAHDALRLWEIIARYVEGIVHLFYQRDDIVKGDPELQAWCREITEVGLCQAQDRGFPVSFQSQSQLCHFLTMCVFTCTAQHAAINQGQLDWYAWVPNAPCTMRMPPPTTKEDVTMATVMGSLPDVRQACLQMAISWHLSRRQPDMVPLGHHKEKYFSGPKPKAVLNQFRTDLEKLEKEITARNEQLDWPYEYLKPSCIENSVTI

molecular target: Polyunsaturated fatty acid lipoxygenase ALOX12 (Homo sapiens) (UniProt P18054); assay: Primary qHTS assay for inhibitors of human arachidonate 12S-lipoxygenase (ALOX12): Round 2; conditions: purified 12hLO, xylenol orange hydroperoxide absorbance; activity change, negative = inhibition: at 108 µM (top of the series) unless noted
Summary of the method: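 Purified human 12hLO at 150 nM in 25 mM Hepes, 0.01% Triton X-100, pH 7.0, preincubated 15 min at room temperature with compound. Reaction started with 40 uM arachidonic acid, 30 min at room temperature. Hydroperoxide measured by Fe-xylenol orange, 573/405 nm absorbance ratio.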
% is set by controls: 0 for no effect and ±100 for the full control effect; potency is the fitted concentration of half-maximal effect.

SMILES | Potency | activity change, negative = inhibition
O=C(NCc1ccc2c(c1)OCO2)c1ccc(-c2csc(C3CC3)n2)cc1 | inconclusive: 28.2 µM [inhibitor, single point] | –
CCCOc1ccccc1NC(=O)c1nn(C)c(=O)c2ccccc12 | – | inactive: 1.86%
Cc1cc2ccccc2c(=O)n1CC(=O)NCC(=O)N(C)C1CCCCC1 | inconclusive: 63.1 µM [inhibitor, partial curve, poor fit] | –
COc1cccc(S(=O)(=O)Nc2cccc(C(=O)N3CCCCCC3)c2)c1 | – | inactive: -13.9%
Cc1csc2ncc(C(=O)Nc3ccccc3Cl)c(=O)n12 | inconclusive: 2.51 µM [inhibitor, full curve, poor fit] | –
COC(=O)c1cccc(NC(=S)Nc2ccc(Cl)c(Cl)c2)c1 | inconclusive: 44.7 µM [inhibitor, partial curve, poor fit] | –
CCN(CC)C(=O)c1cc(Cl)ccn1 | inconclusive: 50.1 µM [inhibitor, partial curve, poor fit] | –
c1ccc(-n2ncc3c(NC4CCCCCC4)ncnc32)cc1 | – | inactive: 27.3% [at 57.4 µM]
CCC(c1nnnn1Cc1ccco1)N(CCc1ccccc1)Cc1cc2ccc(OC)cc2[nH]c1=O (centres undefined) | inconclusive: 31.6 µM [inhibitor, partial curve, poor fit] | –
CCOC(=O)c1cn2nc(Oc3ccc(C(=O)OC)cc3)ccc2n1 | inconclusive: 126 µM [inhibitor, single point] | –
O=[N+]([O-])c1ccccc1S(=O)(=O)NC(c1ccccc1)c1cccs1 (centres undefined) | inconclusive: 70.8 µM [inhibitor, single point] | –
COc1ccc(C(=O)CCN2CCc3cc(OC)c(OC)cc3C2)cc1 | – | inactive: 31.1%
Cc1ccc(-c2nn(CCC(=O)Nc3cccnc3)c(=O)c3ccccc23)cc1 | inconclusive: 79.4 µM [inhibitor, partial curve, poor fit] | –
O=C(NCC(c1ccco1)N1CCc2ccccc21)C(=O)Nc1ccccc1F (centres undefined) | – | inactive: -17.4%
O=C(O)c1ccc2c(c1)C(=O)N(c1ccc([N+](=O)[O-])cn1)C2=O | inconclusive: 35.5 µM [inhibitor, partial curve] | –
Cc1nc(-c2cccc(NS(=O)(=O)c3ccc4ccccc4c3)c2)cs1 | inconclusive: 44.7 µM [inhibitor, partial curve] | –
COc1ccc(C(=O)N[C@@H]2CCC[C@@H]2C(=O)NCc2ccc3c(c2)OCO3)cn1 | – | inactive: -5.8%
CCOc1ccc(NC(=O)c2ccc(F)c(S(=O)(=O)NCc3ccc4c(c3)OCO4)c2)cc1 | inconclusive: 50.1 µM [inhibitor, partial curve, poor fit] | –
COc1ccc(C(=O)Nc2cc3c4c(c2)C(C)C(=O)N4CCC3)cc1 (centres undefined) | inconclusive: 50.1 µM [inhibitor, partial curve, poor fit] | –
CNC(=O)c1cc(C)c(-c2ccccc2)s1 | – | inactive: -3.48%
Cc1cc(C(=O)Nc2nc3ccc(S(C)(=O)=O)cc3s2)c(C)o1 | inconclusive: 39.8 µM [inhibitor, partial curve, poor fit] | –
CCN(CC)Cc1cnc2c(C(=O)N3CC[C@H]4CC[C@@H](C3)N4)cnn2c1 | inconclusive: 17.8 µM [inhibitor, partial curve, poor fit] | –

SMILES | Potency | activity change, negative = inhibition
O=C(Cn1cc(S(=O)(=O)Cc2ccc(F)cc2)c2ccccc21)NCc1ccccc1Cl | inconclusive: 112 µM [inhibitor, partial curve, poor fit] | –
CC1CC(=O)C(C)(C)N(C)C1 (centres undefined) | inconclusive: 14.1 µM [inhibitor, partial curve, poor fit] | –
CCc1nnc(NC(=O)CSc2nccn2-c2ccccc2)s1 | inconclusive: 126 µM [inhibitor, single point] and inconclusive: 35.5 µM [inhibitor, partial curve] | –
COc1cc(/C=C2\C(=N)N3N=CSC3=NC2=O)ccc1OS(=O)(=O)c1ccccc1[N+](=O)[O-] | inconclusive: 2 µM [inhibitor, partial curve, poor fit] | –
Nc1c(C(=O)Nc2ccc(Br)cc2)sc2nc(-c3ccco3)ccc12 | inconclusive: 224 µM [inhibitor, partial curve, poor fit] | –
COC(=O)c1nn(-c2ccccc2)c2nnc(Cc3ccc(C)cc3)c(=O)n12 | – | inactive: -0.208%
Cc1cc(C)cc(NC(=S)NC2CCCC(C)C2C)c1 (centres undefined) | inconclusive: 39.8 µM [inhibitor, partial curve, poor fit] | –
O=C(CCSc1ccc(Cl)cc1)N1CCN(c2ccc(O)cc2)CC1 | inconclusive: 50.1 µM [inhibitor, partial curve, poor fit] | –
O=C(Nc1ccc(Cl)c2ncsc12)c1ccc(S(=O)(=O)N2CCCCC2)cc1 | inconclusive: 100 µM [inhibitor, single point] | –
CC(C)c1ccc(C(=O)CSc2ncn[nH]2)cc1 | inconclusive: 2.51 µM [inhibitor, full curve, poor fit] | –
CC(C(=O)NCc1ccco1)n1cnc2c1c(=O)n(C)c(=O)n2C (centres undefined) | – | inactive: -4.97%
Cn1c(=O)c2c(-c3ccccc3)n3c(c2n(C)c1=O)C(c1cccc(O)c1)OCC3 (centres undefined) | inconclusive: 22.4 µM [inhibitor, partial curve, poor fit] | –
O=C(Nc1c(N2CCCC2)c2ccccc2oc1=O)C1CC1 | – | inactive: 4.47%
CCNc1sc(C(C)=O)c(N)c1C#N | active: 3.16 µM | –
Cc1ccc(C(=O)COC(=O)C2(C)CC2(Cl)Cl)cc1C (centres undefined) | inconclusive: 35.5 µM [inhibitor, single point] | –
Cn1c(-c2ccc(F)cc2)cnc1NCc1ccccc1F | inconclusive: 1.12 µM [inhibitor, full curve, poor fit] | –
Cc1cc(C)n(Cc2ccc(C(=O)O)o2)n1 | inconclusive: 35.5 µM [inhibitor, single point] | –
C[C@@H]1CN([C@@H](C)CO)C(=O)CCCn2cc(nn2)CO[C@H]1CN(C)S(=O)(=O)c1ccccc1C#N | – | inactive: -13.8%
Cc1cc(C)n(-c2nc(NCCC(C)C)c3c4c(sc3n2)COC(C)(C)C4)n1 | inconclusive: 15.8 µM [inhibitor, full curve, poor fit] | –
CN(Cc1ccccc1NC(=O)c1ccccc1C(F)(F)F)C1CCCCC1 | – | inactive: 8.77%
CC(C)c1nc(C2Cc3ccccc3N2C(=O)NC2CCCC2)no1 (centres undefined) | inconclusive: 8.91 µM [inhibitor, full curve] | –
O=C(O)c1ccccc1SCC(=O)N1c2ccccc2Sc2ccccc21 | – | inactive: -24.7%

SMILES | Potency | activity change, negative = inhibition
Fc1ccc(N/N=C/c2ccccc2Cl)c(F)c1 | active: 3.16 µM | –
COc1ccc(C(O)C(CN2CCOCC2)c2ccccc2)cc1 (centres undefined) | – | inactive: -14.6%
O=C(CC1Sc2ccc(C(F)(F)F)cc2NC1=O)Nc1cc(Cl)cc(Cl)c1 (centres undefined) | inconclusive: 35.5 µM [inhibitor, partial curve, poor fit] | –
COc1cc2c(cc1OC)C(c1cccc([N+](=O)[O-])c1)N(C(=O)CCC(=O)O)CC2 (centres undefined) | inconclusive: 79.4 µM [inhibitor, single point] | –
O=c1[nH]c(=O)n(C2CCCO2)cc1Br (centres undefined) | inconclusive: 5.01 µM [inhibitor, full curve, poor fit] | –
Cc1cc2oc(=O)cc(CN3CCN(c4ccc(F)cc4)CC3)c2cc1O | inconclusive: 31.6 µM [inhibitor, partial curve, poor fit] | –
C=CCN(CC=C)C(=S)NC(=O)c1ccc(OC)cc1 | – | inactive: -16.9%
CCOC(=O)c1sc(N)c(C#N)c1C | inconclusive: 22.4 µM [inhibitor, full curve, poor fit] | –
COCCNC(=O)c1cc(-c2ccccc2C)n(CC2CC(c3cccc([N+](=O)[O-])c3)=NO2)n1 (centres undefined) | inconclusive: 31.6 µM [inhibitor, single point] | –
CC1(C)C(=O)Nc2ccccc2N1C(=O)COC(=O)Cc1c(F)cccc1Cl | inconclusive: 25.1 µM [inhibitor, partial curve, poor fit] | –
O=C(CN1C(=O)c2ccccc2S1(=O)=O)c1ccc(F)c(F)c1 | inconclusive: 79.4 µM [inhibitor, single point] | –
Cc1cc(NC(=O)CCC(=O)N(CC2CCCO2)C(C(=O)NC2CCCC2)c2cccnc2)no1 (centres undefined) | – | inactive: 0%
CC1Sc2ccc(S(=O)(=O)CCC(=O)N3CCN(c4cccc(Cl)c4)CC3)cc2NC1=O (centres undefined) | – | inactive: -4.14%
Cc1cc(C)cc(OCC(=O)OCCN2C(=O)c3ccccc3C2=O)c1 | inconclusive: 31.6 µM [inhibitor, partial curve, poor fit] | –
O=c1[nH]c(=O)n([C@H]2C[C@@H](O)[C@@H](CO)O2)cc1C=CBr | inconclusive: 12.2 µM [inhibitor, single point] | –
COCc1nc(C2CC(N)C2)cc(N2Cc3nc(C)n(C)c(=O)c3C2)n1 (centres undefined) | inconclusive: 20 µM [inhibitor, full curve, poor fit] | –
C=C1SC(=Nc2ccccc2Cl)N(C(=O)c2sc3ccccc3c2Cl)C1(C)C | inconclusive: 20 µM [inhibitor, full curve, poor fit] | –
C[C@H](CO)N1C[C@H](C)[C@@H](CN(C)S(=O)(=O)c2ccc(F)cc2)Oc2ccc(NC(=O)c3ccncc3)cc2C1=O | inconclusive: 50.1 µM [inhibitor, partial curve, poor fit] | –
O=C(OCc1ccccc1)c1ccc(C(=O)c2ccccc2)cc1 | inconclusive: 4.47 µM [inhibitor, full curve] | –
